# Measurements as given in publication PMC7819943, “Rice protein-binding microarrays: a tool to detect cis-acting elements near promoter regions in rice”.
# Some of the results follow.
# Target: T1, OsSMF1 (Oryza sativa, UniProt Q6ZLB0 1-436)
# T1 sequence: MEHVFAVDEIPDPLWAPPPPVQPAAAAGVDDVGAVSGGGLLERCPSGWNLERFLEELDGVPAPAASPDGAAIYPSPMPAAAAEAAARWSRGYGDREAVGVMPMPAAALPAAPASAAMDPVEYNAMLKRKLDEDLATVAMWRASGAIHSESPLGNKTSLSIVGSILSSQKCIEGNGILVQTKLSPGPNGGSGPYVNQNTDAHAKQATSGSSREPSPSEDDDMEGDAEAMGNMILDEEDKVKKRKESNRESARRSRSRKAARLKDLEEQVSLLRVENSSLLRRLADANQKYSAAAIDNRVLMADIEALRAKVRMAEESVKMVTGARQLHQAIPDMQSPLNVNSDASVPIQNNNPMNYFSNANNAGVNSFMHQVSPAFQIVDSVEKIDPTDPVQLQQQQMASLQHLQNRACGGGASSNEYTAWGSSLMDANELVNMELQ
# Test: protein-binding microarray (RPBM); PBS, 2% BSA, 51.3 ng/ul salmon testes DNA, 50 uM zinc acetate, 200 nM TF, 25 C, 1 h; high values mean tight binding
# Conditions: protein: recombinant; tags: N-terminal polyhistidine and DsRed monomer fusion (pET32a); chain copies: 2; label: CyDye5-dUTP incorporated in the synthesized complementary strand; 3' TTTTT single-stranded linker to array surface; dsDNA, one strand shown
# Summary of the method: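 Transcription factors were made in E. coli BL21-CodonPlus as N-terminal fusions to a polyhistidine tag and DsRed, then purified on Ni–NTA. After primer extension with Cy5-dUTP and blocking with 2% BSA, a custom Agilent array was exposed for 1 h at 25 °C to 200 nM protein in PBS, 2% BSA, salmon testes DNA and 50 µM zinc acetate. Washed arrays were scanned on an Axon 4000B, and the binding signal is per-feature fluorescence intensity in arbitrary units.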
row,Sequence,binding signal
1,GTTTAATAGAACTCGAGTCAGAAGACAGTGTCTCTGGTGACGGAGTCACCTAGTGCAG,3140 fluorescence intensity (a.u.)
2,TGCGTTGGGAGTGAGTGGGACAGTGGTCAAGCCTCGTCATCGGAGTCACCTAGTGCAG,3880 fluorescence intensity (a.u.)
3,TAAGTATGTGCGTTTGCATGTATTTATACGGGTAAGCATGCGGAGTCACCTAGTGCAG,4140 fluorescence intensity (a.u.)
4,TTGCTTTCTTCCTGGCACTGTCAGCATATGTAAATTTTGTCGGAGTCACCTAGTGCAG,4710 fluorescence intensity (a.u.)
5,GCTGTTCCCGTTCCTTGCCTTCGGCCACATCAGCCCGTTCCGGAGTCACCTAGTGCAG,11300 fluorescence intensity (a.u.)
6,CGGGTGTCCAGGAATAGCTCGAGCTTCCGCCACGCCACGCCGGAGTCACCTAGTGCAG,4630 fluorescence intensity (a.u.)
7,TAAACTTCAAATATGACTGGAATGAGTAGATCAGTGCAGTCGGAGTCACCTAGTGCAG,4390 fluorescence intensity (a.u.)
8,AGCGCGCGTCAGGGCAGGCAGGCTCCACCATTTCTCCCAGCGGAGTCACCTAGTGCAG,3310 fluorescence intensity (a.u.)
9,GACTAATCAAACAATTTCCCTCGCTATTAGTCACTGACAGCGGAGTCACCTAGTGCAG,3590 fluorescence intensity (a.u.)
10,CCAAACGGCCACCTCACTCTCCCTCTCTCTATCTCTCTCTCGGAGTCACCTAGTGCAG,6000 fluorescence intensity (a.u.)
11,TCAACTGCTGAGTCAATTAAACTGCTTGCTAGTTTCTCTACGGAGTCACCTAGTGCAG,7340 fluorescence intensity (a.u.)
12,TTTTATATGCAAAGAAAAGTTTTCCCTGAAACTGTAATTTCGGAGTCACCTAGTGCAG,3490 fluorescence intensity (a.u.)
13,ATTATGAAATGGAGGGAGTACCGATCATACGTGTCGTAGTCGGAGTCACCTAGTGCAG,5680 fluorescence intensity (a.u.)
14,TTATTTGACATTTCAGTAATCTTTTGCAGATGAGCATATCCGGAGTCACCTAGTGCAG,3320 fluorescence intensity (a.u.)
15,AGGAGGGTGGAGCTGTGCCAAACAGACCCTAAGTGTTTTCCGGAGTCACCTAGTGCAG,62100 fluorescence intensity (a.u.)
16,AAGTCAATGTCGACGTCGACGAGCTCCTCCGCAAGCGGTGCGGAGTCACCTAGTGCAG,23900 fluorescence intensity (a.u.)
17,TTGGTTAGGAGCTGTTTTGTTTGTTGGGTTGAAATCGTCACGGAGTCACCTAGTGCAG,19800 fluorescence intensity (a.u.)
18,TTAACTAACTGCGTCATCGCCACCGTCGTCATGGCATCTTCGGAGTCACCTAGTGCAG,9730 fluorescence intensity (a.u.)
19,ATTCGTTGCAGAAATCTGCTTGATGACGACTTGGTTGCATCGGAGTCACCTAGTGCAG,3260 fluorescence intensity (a.u.)
20,CCTGTCCTGTGCTGCCGACCCCACGGTGTCACCTCGCGCCCGGAGTCACCTAGTGCAG,4550 fluorescence intensity (a.u.)
21,CTCGACTCGACCGCGGCCGCGGCATTTCGAATTCCCAACCCGGAGTCACCTAGTGCAG,3320 fluorescence intensity (a.u.)

# 3 records picked at random from the list so far:
row,Sequence,binding signal
9,GACTAATCAAACAATTTCCCTCGCTATTAGTCACTGACAGCGGAGTCACCTAGTGCAG,3590 fluorescence intensity (a.u.)
21,CTCGACTCGACCGCGGCCGCGGCATTTCGAATTCCCAACCCGGAGTCACCTAGTGCAG,3320 fluorescence intensity (a.u.)
19,ATTCGTTGCAGAAATCTGCTTGATGACGACTTGGTTGCATCGGAGTCACCTAGTGCAG,3260 fluorescence intensity (a.u.)

# (next part)

row,Sequence,binding signal
1,CGCTGGATGAAATTTAGTAGACGTGTCACCCGGCATTTGCCGGAGTCACCTAGTGCAG,6340 fluorescence intensity (a.u.)
2,CTTACGATTGAGACATGCCAGCTACTACTCCCAATTCTTGCGGAGTCACCTAGTGCAG,4330 fluorescence intensity (a.u.)
3,TATCCATTCGCGCTCCCGGATCAGGTGGCCACCGAGGCGCCGGAGTCACCTAGTGCAG,3190 fluorescence intensity (a.u.)
4,TTATTTAAATCAAGATATATTTTAACGTCACCTTTCTCGTCGGAGTCACCTAGTGCAG,3870 fluorescence intensity (a.u.)
5,GCATTGAGACTATTATATGAGCTGTCCTTAATAAATTAGTCGGAGTCACCTAGTGCAG,3980 fluorescence intensity (a.u.)
6,GGTGAACAGAGATACACGTGGGTATACAAGTACGGGAAATCGGAGTCACCTAGTGCAG,4900 fluorescence intensity (a.u.)
7,ATTATGGCCCGTCACGGATATGTGTCATCCGTGACGGGTCCGGAGTCACCTAGTGCAG,6820 fluorescence intensity (a.u.)
8,AAGTGGATTAACAACGGACCAATTTGCAGGGGAACAAACCCGGAGTCACCTAGTGCAG,30000 fluorescence intensity (a.u.)
9,GGTTGGCATTCTCGGGTTCATTACAACCAATCGCAGCTAGCGGAGTCACCTAGTGCAG,3420 fluorescence intensity (a.u.)
10,CACATCTCCCATCTAAAACACGCATGCCCTGTCCGTTGTTCGGAGTCACCTAGTGCAG,3400 fluorescence intensity (a.u.)
11,GTTGATCGGATTCAACCGTGCAAACAGAAAAGAAAGCGAACGGAGTCACCTAGTGCAG,23400 fluorescence intensity (a.u.)
12,ACTATTCTAAATTATAAACTAGGGCTCACTTCCACTGACACGGAGTCACCTAGTGCAG,3200 fluorescence intensity (a.u.)
13,AAATTTATAGTTTTGTGATAGGACACCTTACATCTATAGTCGGAGTCACCTAGTGCAG,31100 fluorescence intensity (a.u.)
14,TGTGGAAAGTGGCGATGAGAGGAGTCAGGGGTGGTTCGGCCGGAGTCACCTAGTGCAG,4640 fluorescence intensity (a.u.)
15,AGCTCCCGCCATCCGCCTCGCCGCTCTCTTCATCTCGCTCCGGAGTCACCTAGTGCAG,3560 fluorescence intensity (a.u.)
16,TACCTGCAGCTCCGCCCGCGACCTCGCCGACGCGCGGGCCCGGAGTCACCTAGTGCAG,3650 fluorescence intensity (a.u.)
17,ATACCTAATCAACGTGTCATTTTGTGCCCCTATCACGGAACGGAGTCACCTAGTGCAG,5960 fluorescence intensity (a.u.)
18,CTCTTCTATTGTTGTTGAAGTACCTGATTAACTGAGTAAGCGGAGTCACCTAGTGCAG,3180 fluorescence intensity (a.u.)
19,CCAGTCACACAACACAACAATTTAGGATTGGTAGAGCCCACGGAGTCACCTAGTGCAG,7110 fluorescence intensity (a.u.)
20,GGCCCATGGGCCGCCACGTCCGCATGACAATCACGCTACCCGGAGTCACCTAGTGCAG,9270 fluorescence intensity (a.u.)
21,TCTACTTAACATTGTATCTGCAAGGTATTGTAGTCTATTGCGGAGTCACCTAGTGCAG,3180 fluorescence intensity (a.u.)
